# Laboratory results published in PubChem BioAssay AID493014 (National Center for Advancing Translational Sciences (NCATS), 2011).
# Some of the results follow. Shown are side measurements of this screen, not its main read-out; they come without a call. The list favours compounds with an active or inconclusive main result. Potencies come from curve fits of mixed quality, noted in brackets.
# Assay: qHTS Assay to Find Inhibitors of Chronic Active B-Cell Receptor Signaling
# Conditions: ABC-DLBCL IkBa-CBG/CBR reporter, luminescence ratio (green luciferase fused to IkBa over red control in TMD8 lymphoma cells), 4 h
# How it was run: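 Cell line TMD8 (human ABC DLBCL), stably expressing tet-inducible CBG68-IkBa fusion and CBR; IMDM/0.5% FBS; cpd up to 46 uM; dox induction, 4 h, 37C/5% CO2; dual luminescence; green/red ratio; MG132 control.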
# [1] = measured here: CBR red luminescence, cell number
SMILES,AC50 [1],AC50 (measured here: IkBa-CBG green luminescence)
O=C(CSc1nccn(-c2ccc(F)c(Cl)c2)c1=O)NC1CCCC1,"7.31 µM [falling, partial curve, poor fit]",–
O=C(COC(=O)/C=C/c1ccco1)NCc1ccccc1,"7.08 µM [rising, full curve, poor fit]",–
C=CCOC(=O)C1=C[C@@H](c2ccc3c(c2)OCO3)C[C@@H](OCc2ccc(CO)cc2)O1,"11.2 µM [rising, partial curve, poor fit]",–
CCOc1ccccc1NC(=O)NC1(C(=O)N2CCOCC2)CCCCC1,"14.1 µM [rising, partial curve, poor fit]",–
O=C(Nc1ncc(Cc2ccccc2)s1)C1CCCO1 (stereo unspecified),"32.6 µM [falling, single point]",–
Clc1ccccc1/C=C/c1nc(-c2ccccn2)no1,"7.08 µM [falling, partial curve, poor fit]",–
COc1ccccc1-c1cc(C(=O)NCc2ccccc2)c2c(-c3ccc(C)cc3)[nH]nc2n1,"0.501 µM [falling, full curve, poor fit]",–
Cc1ccc2nc(-c3ccncc3)[nH]c2c1,"8.91 µM [falling, partial curve, poor fit]",–
Cc1cc(C)c(NN=c2c(=O)c3ccccc3c2=O)c(C)c1,"0.82 µM [rising, full curve]",–
COc1cc2c(cc1OC)C(=O)N1[C@H]3c4cc(C)ccc4OC[C@@H]3[C@H](c3ccccc3)[C@]1(C)C(=O)N2,"32.6 µM [falling, partial curve, poor fit]",–
COc1ccccc1/C=C1\SC(=S)N(CCC(=O)Nc2cccc(O)c2)C1=O,"11.2 µM [falling, partial curve]",–
C[C@@H](C(=O)NCCc1c[nH]c2ccccc12)[C@H]1C[C@]1(C)[C@H](NC(=O)OCc1ccccc1)c1ccccc1,"23.1 µM [falling, single point]",–
CC(NC(=O)CSc1nnc(-c2cccnc2)n1N)c1ccccc1 (stereo unspecified),"5.62 µM [rising, single point]",–
CN(CCC1CCOCC1)C(=O)CC1C(=O)NCCN1Cc1ccoc1 (stereo unspecified),"35.5 µM [rising, single point]",–
CC(=O)N(C)c1ccc(NC(=O)Nc2ccc(C)cc2)cc1,"20 µM [rising, single point]",–
Cc1nnnn1/C(=C\c1ccccc1)C(=O)OCC(=O)Nc1cccc(S(=O)(=O)N(C)C)c1,"2.31 µM [falling, full curve]",–
COc1cccc(CNc2ccc3[nH]c(=O)[nH]c3c2)c1OCc1ccccc1,"11.2 µM [falling, partial curve]",–
Brc1cc(Br)c(Oc2cc(Br)c(Br)cc2Br)cc1Br,"6.51 µM [falling, single point]",–
Cn1c(CO)cnc1SCc1ccc(Cl)cc1,"3.98 µM [falling, partial curve]",–
O=C(COC(=O)[C@H](Cc1ccccc1)NC(=O)c1cccs1)Nc1cc(F)ccc1F,"1.84 µM [rising, partial curve]",–
O=C(COCc1cc(-c2ccc(F)cc2)on1)Nc1cc(F)ccc1F,"35.5 µM [falling, single point]",–

# Full records, looked up by structure. Order of values: AC50 [1] | AC50 (measured here: IkBa-CBG green luminescence)
# O=C(CSc1nccn(-c2ccc(F)c(Cl)c2)c1=O)NC1CCCC1 in the list: 7.31 µM [falling, partial curve, poor fit] | –
# CCOc1ccccc1NC(=O)NC1(C(=O)N2CCOCC2)CCCCC1 in the list: 14.1 µM [rising, partial curve, poor fit] | –
# Cc1cc(C)c(NN=c2c(=O)c3ccccc3c2=O)c(C)c1 in the list: 0.82 µM [rising, full curve] | –

# Remaining list, next part.

SMILES,AC50 [1],AC50 (measured here: IkBa-CBG green luminescence)
C/C(=N\NC(=O)COc1cc(C)cc(C)c1)c1ccc(N2CCOCC2)cc1,"29.1 µM [falling, single point]",–
Cc1nc(CSc2ccc(Cl)cc2)cs1,"7.08 µM [rising, partial curve]",–
O=C(Nc1cccc(F)c1)c1ccc(Br)o1,–,"18.4 µM [rising, partial curve, poor fit]"
COc1ccc(NC2CCCN(C(=O)CN3CCOC3=O)C2)cc1OC (stereo unspecified),"25.1 µM [falling, partial curve, poor fit]",–
Cc1ccccc1Nc1nc(N)nc(COC(=O)c2cccc(S(=O)(=O)NCc3ccccc3)c2)n1,"23.1 µM [falling, single point]",–
COc1ccccc1/C=C/C=N/NC(=O)c1cc(-c2ccco2)[nH]n1,"8.91 µM [falling, partial curve]",–
O=[N+]([O-])c1ccc(-c2nnc(-c3ccccc3)c(N3CCOCC3)n2)cc1,"18.4 µM [falling, partial curve]",–
CCC(CC)C1C(C#N)=C(N)SC(N)=C1C#N,"29.1 µM [falling, single point]",–
CCOC(=O)c1c(C)c(C(=O)NCC2CCCO2)c(C)n1C (stereo unspecified),"0.517 µM [falling, partial curve, poor fit]",–
Cc1csc(=O)n1CC(=O)OC(C)C(=O)Nc1cccc(Cl)c1 (stereo unspecified),"25.9 µM [rising, single point]",–
Cc1nc(CN(C)C(=O)c2cc(COc3c(F)cccc3F)on2)cs1,"35.5 µM [falling, single point]",–
COc1cc2c(cc1OC)C(c1ccccc1)CC2=O (stereo unspecified),"12.6 µM [rising, single point]",–
CCc1ccc(NC(=O)c2sc3nc4n(c(=O)c3c2C)CCC4)cc1,"11.2 µM [rising, partial curve, poor fit]",–
O=C(C1CCN(S(=O)(=O)c2cccc3nsnc23)CC1)N1CCn2c1nc1ccccc12,"0.1 µM [rising, full curve, poor fit]",–
CCCCc1nnc(NC(=O)c2oc3ccccc3c2C)s1,"0.461 µM [rising, partial curve]",–
COCCn1c(=NC(=O)c2ccc3c(c2)OCCO3)sc2cc(S(N)(=O)=O)ccc21,"22.4 µM [rising, single point]",–
COc1ccc(-c2sc(Nc3ccc(F)c(F)c3F)nc2CCC(=O)NN)cc1,"5.62 µM [rising, single point]",–
CSc1ccccc1OCc1cc(C(=O)NC(C)Cn2cncn2)no1 (stereo unspecified),"35.5 µM [falling, single point]",–
CCCC1C2C(=O)N(c3ccccc3OCC)C(=O)C2ON1c1ccccc1 (stereo unspecified),"0.146 µM [falling, full curve, poor fit]",–
CCNC(=O)/C(C#N)=C/c1c(N2CCN(c3ccccc3)CC2)nc2ccccn2c1=O,"6.31 µM [rising, full curve]",–
